Experimental data: PMC10936183

Amino acid sequences for entries named in this document (tags omitted). Residues count along the entry.
UniProt P11021, residues 19-654: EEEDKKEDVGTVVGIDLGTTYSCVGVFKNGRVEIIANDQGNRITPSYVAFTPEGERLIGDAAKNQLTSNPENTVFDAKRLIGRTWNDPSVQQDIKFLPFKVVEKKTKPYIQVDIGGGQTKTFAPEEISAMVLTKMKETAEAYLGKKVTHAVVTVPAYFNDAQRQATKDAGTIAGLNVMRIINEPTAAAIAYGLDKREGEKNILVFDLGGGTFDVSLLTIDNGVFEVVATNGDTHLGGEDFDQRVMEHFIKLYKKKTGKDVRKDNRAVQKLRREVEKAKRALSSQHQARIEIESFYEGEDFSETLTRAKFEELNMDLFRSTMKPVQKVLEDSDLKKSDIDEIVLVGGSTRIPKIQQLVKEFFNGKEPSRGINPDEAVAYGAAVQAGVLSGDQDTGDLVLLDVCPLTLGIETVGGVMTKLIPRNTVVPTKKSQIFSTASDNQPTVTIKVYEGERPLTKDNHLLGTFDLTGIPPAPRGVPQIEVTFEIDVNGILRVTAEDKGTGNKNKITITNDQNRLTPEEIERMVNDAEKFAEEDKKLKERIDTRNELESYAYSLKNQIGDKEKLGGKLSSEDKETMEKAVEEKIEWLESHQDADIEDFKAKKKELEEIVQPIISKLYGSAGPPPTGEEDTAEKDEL
UniProt O94822: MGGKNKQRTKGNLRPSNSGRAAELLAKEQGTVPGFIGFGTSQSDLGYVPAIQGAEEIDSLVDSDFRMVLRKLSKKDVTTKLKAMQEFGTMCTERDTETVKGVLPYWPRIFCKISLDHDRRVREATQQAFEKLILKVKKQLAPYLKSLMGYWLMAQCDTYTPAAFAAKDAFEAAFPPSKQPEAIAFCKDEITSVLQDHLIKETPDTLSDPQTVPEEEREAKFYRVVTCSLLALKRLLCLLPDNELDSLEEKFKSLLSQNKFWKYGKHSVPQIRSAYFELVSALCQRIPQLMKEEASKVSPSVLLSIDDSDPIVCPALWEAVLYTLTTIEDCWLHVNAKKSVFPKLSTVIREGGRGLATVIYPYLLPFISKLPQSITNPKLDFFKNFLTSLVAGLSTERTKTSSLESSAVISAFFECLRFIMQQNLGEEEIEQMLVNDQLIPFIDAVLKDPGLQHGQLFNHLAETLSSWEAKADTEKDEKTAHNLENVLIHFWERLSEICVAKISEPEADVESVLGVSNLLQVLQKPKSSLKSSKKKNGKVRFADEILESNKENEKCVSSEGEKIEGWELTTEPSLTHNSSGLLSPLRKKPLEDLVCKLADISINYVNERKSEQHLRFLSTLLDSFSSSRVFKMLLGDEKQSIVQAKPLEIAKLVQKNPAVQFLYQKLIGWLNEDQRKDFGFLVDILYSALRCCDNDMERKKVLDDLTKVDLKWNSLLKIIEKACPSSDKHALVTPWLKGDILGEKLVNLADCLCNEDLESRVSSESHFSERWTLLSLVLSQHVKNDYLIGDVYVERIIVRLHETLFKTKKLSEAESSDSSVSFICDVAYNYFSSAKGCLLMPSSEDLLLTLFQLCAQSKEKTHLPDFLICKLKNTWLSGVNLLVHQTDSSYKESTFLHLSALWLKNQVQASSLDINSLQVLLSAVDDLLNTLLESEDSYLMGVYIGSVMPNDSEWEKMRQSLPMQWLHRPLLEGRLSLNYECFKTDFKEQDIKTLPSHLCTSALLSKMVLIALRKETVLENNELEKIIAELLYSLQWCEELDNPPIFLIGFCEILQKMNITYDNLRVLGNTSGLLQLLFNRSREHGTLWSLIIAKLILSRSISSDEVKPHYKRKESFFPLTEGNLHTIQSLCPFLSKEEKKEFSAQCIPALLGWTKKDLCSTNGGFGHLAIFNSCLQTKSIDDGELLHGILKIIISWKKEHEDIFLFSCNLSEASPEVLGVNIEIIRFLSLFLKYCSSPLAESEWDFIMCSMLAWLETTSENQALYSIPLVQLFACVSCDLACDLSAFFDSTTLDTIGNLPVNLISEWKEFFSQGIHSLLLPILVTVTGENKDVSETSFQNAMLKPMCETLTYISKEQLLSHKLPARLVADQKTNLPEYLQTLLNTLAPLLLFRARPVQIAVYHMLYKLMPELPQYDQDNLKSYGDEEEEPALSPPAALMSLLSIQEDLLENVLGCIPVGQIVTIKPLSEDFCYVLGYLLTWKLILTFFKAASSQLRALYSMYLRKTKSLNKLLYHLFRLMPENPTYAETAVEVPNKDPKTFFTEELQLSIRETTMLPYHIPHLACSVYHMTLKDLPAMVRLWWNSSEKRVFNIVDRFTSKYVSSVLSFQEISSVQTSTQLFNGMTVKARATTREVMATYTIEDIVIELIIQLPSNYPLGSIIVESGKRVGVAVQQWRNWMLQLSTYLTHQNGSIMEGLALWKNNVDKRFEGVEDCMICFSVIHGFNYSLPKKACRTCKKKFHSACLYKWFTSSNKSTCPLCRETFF
UniProt Q9UKV5: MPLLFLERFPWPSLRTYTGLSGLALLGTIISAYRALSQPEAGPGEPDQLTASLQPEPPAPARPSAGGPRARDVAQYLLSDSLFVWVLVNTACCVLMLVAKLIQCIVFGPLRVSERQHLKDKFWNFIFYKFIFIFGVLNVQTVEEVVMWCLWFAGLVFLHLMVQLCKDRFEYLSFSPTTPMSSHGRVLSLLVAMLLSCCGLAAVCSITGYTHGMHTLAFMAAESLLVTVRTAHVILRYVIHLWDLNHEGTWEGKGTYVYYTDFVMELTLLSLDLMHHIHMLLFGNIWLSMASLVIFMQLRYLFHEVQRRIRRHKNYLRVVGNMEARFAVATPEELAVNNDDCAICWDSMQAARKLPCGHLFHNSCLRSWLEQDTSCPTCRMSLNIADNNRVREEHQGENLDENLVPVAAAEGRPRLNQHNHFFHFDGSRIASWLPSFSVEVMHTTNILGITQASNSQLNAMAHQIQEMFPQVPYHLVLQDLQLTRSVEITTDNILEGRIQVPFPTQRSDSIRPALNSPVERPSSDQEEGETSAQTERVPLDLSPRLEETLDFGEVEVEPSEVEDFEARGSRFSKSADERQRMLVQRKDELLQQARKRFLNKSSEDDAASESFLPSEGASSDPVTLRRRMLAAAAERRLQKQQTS

B1: ERLIN1 (protein, UniProt O75477 1-348)
chain: MNMTQARVLVAAVVGLVAVLLYASIHKIEEGHLAVYYRGGALLTSPSGPGYHIMLPFITTFRSVQTTLQTDEVKNVPCGTSGGVMIYIDRIEVVNMLAPYAVFDIVRNYTADYDKTLIFNKIHHELNQFCSAHTLQEVYIELFDQIDENLKQALQKDLNLMAPGLTIQAVRVTKPKIPEAIRRNFELMEAEKTKLLIAAQKQKVVEKEAETERKKAVIEAEKIAQVAKIRFQQKVMEKETEKRISEIEDAAFLAREKAKADAEYYAAHKYATSNKHKLTPEYLELKKYQAIASNSKIYFGSNIPNMFVDSSCALKYSDIRTGRESSLPSKEALEPSGENVIQNKESTG
B2: ERLIN2 (protein, UniProt O94905 1-339)
chain: MAQLGAVVAVASSFFCASLFSAVHKIEEGHIGVYYRGGALLTSTSGPGFHLMLPFITSYKSVQTTLQTDEVKNVPCGTSGGVMIYFDRIEVVNFLVPNAVYDIVKNYTADYDKALIFNKIHHELNQFCSVHTLQEVYIELFDQIDENLKLALQQDLTSMAPGLVIQAVRVTKPNIPEAIRRNYELMESEKTKLLIAAQKQKVVEKEAETERKKALIEAEKVAQVAEITYGQKVMEKETEKKISEIEDAAFLAREKAKADAECYTAMKIAEANKLKLTPEYLQLMKYKAIASNSKIYFGKDIPNMFMDSAGSVSKQFEGLADKLSFGLEDEPLETATKEN
B3: RPN1 (protein, UniProt P04843 24-607)
chain: ASSEAPPLINEDVKRTVDLSSHLAKVTAEVVLAHLGGGSTSRATSFLLALEPELEARLAHLGVQVKGEDEEENNLEVRETKIKGKSGRFFTVKLPVALDPGAKISVIVETVYTHVLHPYPTQITQSEKQFVVFEGNHYFYSPYPTKTQTMRVKLASRNVESYTKLGNPTRSEDLLDYGPFRDVPAYSQDTFKVHYENNSPFLTITSMTRVIEVSHWGNIAVEENVDLKHTGAVLKGPFSRYDYQRQPDSGISSIRSFKTILPAAAQDVYYRDEIGNVSTSHLLILDDSVEMEIRPRFPLFGGWKTHYIVGYNLPSYEYLYNLGDQYALKMRFVDHVFDEQVIDSLTVKIILPEGAKNIEIDSPYEISRAPDELHYTYLDTFGRPVIVAYKKNLVEQHIQDIVVHYTFNKVLMLQEPLLVVAAFYILFFTVIIYVRLDFSITKDPAAEARMKVACITEQVLTLVNKRIGLYRHFDETVNRYKQSRDISTLNSGKKSLETEHKALTSEIALLQSRLKTEGSDLCDRVSEMQKLDAQVKELVLKSAVEAERLVAGKLKKDTYIENEKLISGKRQELVTKIDHILDAL
B4: CERS2 (protein, UniProt Q96G23 1-380)
chain: MLQTLYDYFWWERLWLPVNLTWADLEDRDGRVYAKASDLYITLPLALLFLIVRYFFELYVATPLAALLNIKEKTRLRAPPNATLEHFYLTSGKQPKQVEVELLSRQSGLSGRQVERWFRRRRNQDRPSLLKKFREASWRFTFYLIAFIAGMAVIVDKPWFYDMKKVWEGYPIQSTIPSQYWYYMIELSFYWSLLFSIASDVKRKDFKEQIIHHVATIILISFSWFANYIRAGTLIMALHDSSDYLLESAKMFNYAGWKNTCNNIFIVFAIVFIITRLVILPFWILHCTLVYPLELYPAFFGYYFFNSMMGVLQLLHIFWAYLILRMAHKFITGKLVEDERSDREETESSEGEEAAAGGGAKSRPLANGHPILNNNHRKND
B5: SPTLC1 (protein, UniProt O15269 1-473)
chain: MATATEQWVLVEMVQALYEAPAYHLILEGILILWIIRLLFSKTYKLQERSDLTVKEKEELIEEWQPEPLVPPVPKDHPALNYNIVSGPPSHKTVVNGKECINFASFNFLGLLDNPRVKAAALASLKKYGVGTCGPRGFYGTFDVHLDLEDRLAKFMKTEEAIIYSYGFATIASAIPAYSKRGDIVFVDRAACFAIQKGLQASRSDIKLFKHNDMADLERLLKEQEIEDQKNPRKARVTRRFIVVEGLYMNTGTICPLPELVKLKYKYKARIFLEESLSFGVLGEHGRGVTEHYGINIDDIDLISANMENALASIGGFCCGRSFVIDHQRLSGQGYCFSASLPPLLAAAAIEALNIMEENPGIFAVLKEKCGQIHKALQGISGLKVVGESLSPAFHLQLEESTGSREQDVRLLQEIVDQCMNRSIALTQARYLEKEEKCLPPPSIRVVVTVEQTEEELERAASTIKEVAQAVLL

Target: GFP-tagged NSP6 (SARS-CoV-2 nonstructural protein 6, full-length NSP6 1–290) (SARS-CoV-2) (UniProt P0DTD1)
Assay: affinity purification with mass spectrometry

Q: For HSPA5 (from UniProt P11021 19-654), which binding is on record?
A: binds

Q: How did the binding turn out when PSMD4 (from UniProt P55036 1-377) was run?
A: binds

Q: For PSMC4 (from UniProt P43686 1-418), which binding is on record?
A: binds

Q: Which binding does the source give for HSPA8 (from UniProt P11142 1-646) here?
A: binds

Q: LTN1 (from UniProt O94822 1-1766) was tested. Which binding did it give?
A: binds

Q: For AMFR (from UniProt Q9UKV5 1-643), which binding is on record?
A: binds

Q: B1 was tested. Which binding did it give?
A: binds

Q: With B2 as the molecule, how does the binding read?
A: binds

Q: How did the binding turn out when B3 was run?
A: binds

Q: Which binding does the source give for B4 here?
A: binds

Q: How did the binding turn out when B5 was run?
A: binds

These are yes or no findings as the source states them, for the method shown. Binding seen in cells or lysates may run through a third protein. Here binding means that the protein was enriched with, or labelled near, the bait; the list need not be complete.
